Measurements taken from PMC10645843, “Fungal secondary metabolism is governed by an RNA-binding protein CsdA/RsdA complex” (Nature Communications, 2023).
These are yes or no findings as the source states them, for the method shown. In cells and extracts the contact can be indirect. These calls come from enrichment with a bait or labelling near it, and not all partners need be listed. Sequences can lack the tags named with a protein.

Biological target: T1, RsdA-His (PFICI_10532), recombinant (Pestalotiopsis fici, UniProt W3WX91 1-730)
T1 construct: RsdA, regulator of secondary metabolism and development, Pestalotiopsis fici, locus PFICI_10532; open reading frame amplified from P. fici cDNA; RsdA-His printed as 80.4 kDa; Printed as RsdA-His; vector pET28a (His6-tag); also called PfRsdA; RsdA-His protein; source: E. coli BL21 (plasmid pYZS42, pET28a), purified (Ni-NTA resin)
T1 sequence (looked up): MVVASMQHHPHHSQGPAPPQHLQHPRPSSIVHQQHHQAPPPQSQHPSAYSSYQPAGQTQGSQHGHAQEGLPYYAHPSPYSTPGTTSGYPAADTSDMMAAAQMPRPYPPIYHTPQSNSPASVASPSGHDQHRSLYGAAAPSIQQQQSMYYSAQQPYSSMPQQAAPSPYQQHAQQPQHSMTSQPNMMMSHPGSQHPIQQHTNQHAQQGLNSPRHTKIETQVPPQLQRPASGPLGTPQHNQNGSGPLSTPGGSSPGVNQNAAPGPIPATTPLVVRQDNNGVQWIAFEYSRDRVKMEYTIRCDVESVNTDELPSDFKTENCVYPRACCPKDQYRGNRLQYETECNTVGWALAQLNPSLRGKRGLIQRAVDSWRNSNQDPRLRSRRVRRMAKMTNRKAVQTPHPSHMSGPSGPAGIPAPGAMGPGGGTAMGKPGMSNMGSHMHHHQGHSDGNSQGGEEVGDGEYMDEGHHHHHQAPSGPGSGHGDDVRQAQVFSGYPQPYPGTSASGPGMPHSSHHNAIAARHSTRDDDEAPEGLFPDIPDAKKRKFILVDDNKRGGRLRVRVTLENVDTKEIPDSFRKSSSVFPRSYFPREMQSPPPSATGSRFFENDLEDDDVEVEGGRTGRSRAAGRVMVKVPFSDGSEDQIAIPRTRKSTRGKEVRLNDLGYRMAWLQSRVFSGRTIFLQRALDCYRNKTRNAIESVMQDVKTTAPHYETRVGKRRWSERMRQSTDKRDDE
Assay: affinity purification with mass spectrometry; 1 mg RsdA-His on Ni-NTA resin, 10 mg total soluble proteins of P. fici added; wash 50 mM NaH2PO4, 300 mM NaCl, 30 mM imidazole, pH 8.0; eluted with 250 mM imidazole; 12% SDS-PAGE, whole lanes or bands cut for LC-MS, Mascot (p < 0.05); controls: RsdA only, total proteins only; only the target purified

B1: CsdA (PFICI_10709), endogenous (protein, UniProt W3WSJ8 1-634)
chain: MSTVPPQPPHFDRYVVIHVATTCDEHGVYVTKDSAEVIELGWIELDAKSLEELHRESVLVKPINTPITPLCTSLTTLTWEHVRNAGTFRDAINRFDAFASEHLTNQNLDFVFVTLDAWDLRVQLPREARDKAVVLPPYLQHSRTFDLRTEYQRWQQHHPESLPFGPSMLSNICAALEVEPVQSSAPIKHNLPFHLQALAPASPRRAMEEAITLARVLRGLIRKSQPAHEHPDVLTRPMDARADVRAFLSERSKVLHMSGLPHDTTQSELESWFTQFGGRPIAFWTLRTPEQHKPTGTGFAVFSSHEEAAESLCMNGRALNEKAIEVSPSSSRVLDRAAEILTPFPPSKNRPRPGDWTCPSCGFSNFQRRTACFRCSFPAVGAGGPQNEMSSYGGGGGGSGGYGYGAPPMMPPPHHGGHHHHHGGMGHGGGRMGGSGVVPFRAGDWKCGNEVCGYHNFAKNVCCLRCGASRAGAAVVADSGYPSPMDSGSNYGMGSHSVGGTPGPGPYASAGGPFGGAGGGYGQHFGGPPSTYALPSGIGGGAAPYPSALNTHIGGPAPGSHSAGPFDSRAAEAAFQSAGNGPASAGPSNNFFGSQAENDPFAFLSTGIGGLTVSGDARQNGSGAGGPQSKSPAA
  binding: binds
